Patent US20160355601A1
These are yes or no findings as the source states them, for the method shown. Some binding calls cover weakened binding; strength is not graded here. Sequences can lack the tags named with a protein.

Columns and labels:
[1] = biological target: T1, histidin-tagged extracellular domain (ECD) of murine TLR2, mTLR2 25-587-His (murine) (UniProt Q9QUN7); assay: complex formation and purification for negative stain EM
T1 sequence: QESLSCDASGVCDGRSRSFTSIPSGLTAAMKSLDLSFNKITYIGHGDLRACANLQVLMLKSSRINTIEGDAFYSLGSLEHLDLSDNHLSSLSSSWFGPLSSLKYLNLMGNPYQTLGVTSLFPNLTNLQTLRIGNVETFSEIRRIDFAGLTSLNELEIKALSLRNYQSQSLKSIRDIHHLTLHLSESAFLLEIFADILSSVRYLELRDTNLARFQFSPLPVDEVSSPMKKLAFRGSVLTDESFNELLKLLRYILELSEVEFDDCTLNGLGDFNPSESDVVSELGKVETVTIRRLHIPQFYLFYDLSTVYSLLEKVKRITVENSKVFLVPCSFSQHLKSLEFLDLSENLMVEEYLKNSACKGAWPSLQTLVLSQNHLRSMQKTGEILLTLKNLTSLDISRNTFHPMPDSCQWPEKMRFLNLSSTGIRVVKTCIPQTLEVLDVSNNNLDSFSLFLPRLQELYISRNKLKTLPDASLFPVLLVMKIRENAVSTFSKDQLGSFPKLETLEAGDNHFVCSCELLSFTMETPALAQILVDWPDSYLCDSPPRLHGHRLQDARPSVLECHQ

[2] = biological target: T1, histidin-tagged extracellular domain (ECD) of murine TLR2, mTLR2 25-587-His (murine); assay: negative stain EM density map with docked structures, overlay with TLR2/TLR1 and TLR2/TLR6 complexes

B1: OPN-305 Fab (Fab, V domains shown)
VH: QVQLVQSGSELKKPGASVKLSCKASGFTFTTYGINWVRQAPGQGLEWIGWIYPRDGSTNFNENFKDRATITVDTSASTAYMELSSLRSEDTAVYFCARLTGGTFLDYWGQGTTVTVSS
VL: DIVLTQSPATLSLSPGERATLSCRASESVEYYGTSLMQWYQQKPGQPPKLLIFGASNVESGVPDRFSGSGSGTDFTLKISRVEAEDVGMYFCQQSRKLPWTFGGGTKVEIK
binding [1]: binds
binding [2]: binds
